# Test results reported in PubChem BioAssay AID540256 (National Center for Advancing Translational Sciences (NCATS), 2011).
# In all, about 300,000 compounds went through this assay and about 3,700 (1.2%) were called active. The inconclusive results got no clear call from the source; some entries with a clear call stand among them for comparison. The call rests on the fitted dose curve; tested in HEK293 cells. Potencies of inconclusive entries are doubtful fits and often do not repeat.
# Assay: qHTS for Inhibitors of binding or entry into cells for Lassa Virus; further: nearly all actives have a fitted effect of over 50% in size
# Conditions: Lassa virus pseudotype entry inhibition, cell reporter; series mostly up to 37.9 µM
# Potency means the concentration at half of the fitted maximal effect.
row,Compound,Potency
1,O=C(CCN1CCOCC1)NNC(=S)NC(=O)c1ccccc1,inactive
2,COC(=O)N(c1ccccc1)P1(=S)OCCO1,"inconclusive: 0.146 µM [inhibitor, single point]"
3,Cc1ccc(C)c(NC(=S)NC(NC(=O)OCc2ccccc2)C(Cl)(Cl)Cl)c1 (stereo not drawn),inactive
4,COc1ccc(NC(=O)c2cn(-c3ccccc3)nc2-c2ccc(C)cc2)cc1,inactive
5,Cc1cc(N2CCN(S(=O)(=O)c3ccc(Br)cc3)CC2)n2ncnc2n1,inactive
6,CCOc1cc(CNCc2cc(OC)cc(OC)c2)ccc1OC,"inconclusive: 11.2 µM [inhibitor, partial curve, poor fit]"
7,Cc1ccccc1-n1c(SCC(=O)N(C)C2CCS(=O)(=O)C2)nc2ccccc2c1=O (stereo not drawn),inactive
8,Cc1ccc(N(C)C(=O)C2CCN(S(=O)(=O)c3ccc4c(c3)CCCN4C(=O)C3CCC3)CC2)cc1,"inconclusive: 3.16 µM [inhibitor, partial curve, poor fit]"
9,COc1ccc(Cl)cc1NC(=O)C(=O)NCc1ccncc1,"inconclusive: 35.5 µM [inhibitor, single point]"
10,CC(C)(C)C(=O)OC/C(N)=N/OC(=O)c1ccc(Cl)cc1,inactive
11,CC1(C)CN=C(N(C(=O)Nc2ccccc2)c2ccccc2F)S1,inactive
12,CCOc1ccccc1-n1cc2c(c1-c1ccc(OC)cc1)c(=O)n(C)c(=O)n2C,inactive
13,Cc1[nH]n(-c2ccccc2)c(=O)c1/C=N/O,inactive
14,O=C(COc1ccccc1O)NNc1ccccc1,"inconclusive: 12.6 µM [inhibitor, partial curve, poor fit]"
15,COc1ccc(S(=O)(=O)N2CCC(n3c(C(F)(F)F)nc4cccnc43)CC2)cc1OC,inactive
16,N/C(=N\OC(=O)c1ccco1)c1cccc(Br)c1,"inconclusive: 5.8 µM [inhibitor, partial curve]"
17,Cc1cccc(Nc2nnc(SCC(=O)NC3CCCc4ccccc43)s2)c1 (stereo not drawn),"inconclusive: 35.5 µM [inhibitor, partial curve, poor fit]"
18,O=C(CSc1ncccn1)N/N=C/c1cccc([N+](=O)[O-])c1,"inconclusive: 22.4 µM [activator, single point]"
19,CCCCCCOC(=O)C(C#N)c1nc2ccccc2nc1N1CCN(C)CC1 (stereo not drawn),"inconclusive: 18.3 µM [inhibitor, partial curve, poor fit]"
20,COc1ccc(C(=O)CN2C(=O)N(c3ccc(C(C)=O)cc3)S(=O)(=O)c3ccccc32)cc1,"inconclusive: 0.631 µM [inhibitor, full curve, poor fit]"
21,Cc1ccc(C(c2nnnn2CS(=O)(=O)c2ccc(C)cc2)N2CCN(c3ncccn3)CC2)cc1 (stereo not drawn),"inconclusive: 18.3 µM [inhibitor, partial curve]"
22,Cn1ccc2c(-c3ccc4c(c3)OCCO4)cc3c(c21)C1CCC3O1 (stereo not drawn),"inconclusive: 0.315 µM [activator, partial curve]"
23,O=C(NNC(=O)c1cc(-c2ccccc2)nc2ccccc12)c1csc(N2CCOCC2)n1,"inconclusive: 5.01 µM [activator, partial curve, poor fit]"

row,Compound,Potency
1,CCc1ccc(-c2csc(NC(=O)C3CCCO3)c2C(=O)OC(C)C)cc1 (stereo not drawn),"inconclusive: 16.4 µM [inhibitor, partial curve, poor fit]"
2,O=C1Cc2ccccc2Sc2c(OCCN3CCCCC3)cccc21,"inconclusive: 29.1 µM [inhibitor, single point]"
3,O=C(CSc1nnc(-c2cccnc2)s1)Nc1cccc(C(=O)O)c1,"inconclusive: 3.16 µM [inhibitor, partial curve]"
4,CCOC(=O)CSc1nc2ccc(C)cc2cc1C#N,"inconclusive: 3.66 µM [activator, full curve, poor fit]"
5,Cc1ccc(C2=NN(CC(=O)NCCN(C)C)C(=O)CC2)cc1,"inconclusive: 35.5 µM [activator, single point]"
6,S=c1[nH]cnc2scc(-c3ccccc3)c12,inactive
7,Cc1ccc(CN2CCC(c3cc(-c4ccc(Cl)cc4)n[nH]3)CC2)cc1,"inconclusive: 22.4 µM [inhibitor, single point]"
8,COc1ccc(N(CC(=O)N2CCN(Cc3ccccc3)CC2)S(=O)(=O)c2ccccc2)cc1,inactive
9,COc1cc(NC(=O)CSc2nc3nc(C)c(Cc4ccc(C)cc4)c(C)n3n2)cc(OC)c1,"inconclusive: 12.6 µM [inhibitor, single point]"
10,O=C(CSC1=NC2(CCCCCC2)N=C1c1ccccc1)Nc1ccc2c(c1)OCCO2,"inconclusive: 20.6 µM [inhibitor, single point]"
11,Cc1ccc(NC(=O)CN(C)S(=O)(=O)c2ccc3nc(C)sc3c2)c(C)c1,inactive
12,CN1CCC2(CC1)Nc1nc(SCc3ccc(Cl)cc3)nn1C1=C2CN(C)CC1,active: 14.1 µM
13,CN(Cc1ccccc1)c1cc(Cl)nc(N)n1,"inconclusive: 35.5 µM [inhibitor, single point]"
14,COc1ccc(NC(=O)c2ccc3c(c2)CCN3S(=O)(=O)c2ccc(C)cc2)cc1Cl,inactive
15,CCOC(=O)c1cccc(NC(=O)C(C)n2c(C)c3cnn(-c4ccccc4)c(=O)c3c2C)c1 (stereo not drawn),"inconclusive: 15.8 µM [inhibitor, single point]"
16,Cc1cc(N2CCCC2=O)ccc1S(=O)(=O)Nc1c(C)nn(C)c1C,"inconclusive: 17.8 µM [inhibitor, single point]"
17,Cc1ccccc1C(=NCCCN(C)C)c1ccccc1C,"inconclusive: 35.5 µM [inhibitor, single point]"
18,Cc1c(NS(=O)(=O)c2cccc(C(=O)Nc3ccc(SC(F)F)cc3)c2)c(=O)n(-c2ccccc2)n1C,"inconclusive: 14.1 µM [inhibitor, single point]"
19,COC(=O)Nc1sc2c(c1C(N)=O)CCCCCC2,"inconclusive: 35.5 µM [activator, partial curve, poor fit]"
20,COc1cccc(-n2c(SCC(=O)NC3CCCCC3)nc3n[nH]c(C)c3c2=N)c1,"inconclusive: 10 µM [inhibitor, partial curve, poor fit]"
21,CN(C)S(=O)(=O)c1ccc(NC(=O)CSc2nc3ccccc3n2-c2ccccc2)cc1,active: 18.4 µM
22,O=C(Nc1ccc(F)cc1F)c1cc2n(n1)C(C(F)(F)F)C1CCCCC1N2 (stereo not drawn),inactive
23,CC(C)COC(=O)c1cccc2c1-c1ccccc1/C2=N\O,"inconclusive: 16.4 µM [inhibitor, single point]"

row,Compound,Potency
1,O=C(CCCc1c[nH]c2ccccc12)NCc1ccccc1F,active: 7.94 µM
2,CCOc1ccc2nc(SCC(=O)NC(=O)NCc3ccco3)[nH]c2c1,"inconclusive: 25.1 µM [inhibitor, single point]"
3,COCCNC(=O)CSc1nnc(NC(=O)C2CC(=O)N(c3ccccc3OC)C2)s1 (stereo not drawn),inactive
4,Cc1c(NC(=O)CSc2ccccn2)c(=O)n(-c2ccccc2)n1C,"inconclusive: 12.6 µM [activator, single point]"
5,O=C(Nc1ccc(Br)cc1)c1cccc(S(=O)(=O)Nc2cnc3ccccc3c2)c1,"inconclusive: 29.1 µM [inhibitor, single point]"
6,COCCSc1nnc(NC(=O)Cc2ccc(OC)c(OC)c2)s1,"inconclusive: 11.2 µM [inhibitor, partial curve, poor fit]"
7,Cc1ccccc1C(=O)Nc1cccc(C(=O)OCc2cc(=O)n3c4c(sc3n2)CCCC4)c1,"inconclusive: 10 µM [inhibitor, partial curve, poor fit]"
8,O=C(CSc1nc2ccccc2n1Cc1ccccc1F)NCc1ccccc1,inactive
9,Cc1ccc(NC(=O)N(Cc2cn(C)c3ccccc23)C2CCCCC2)cc1C,"inconclusive: 3.16 µM [inhibitor, partial curve, poor fit]"
10,Cc1cc(C)cc(OCC(=O)Nc2ccc(-c3nc4ccccc4s3)cc2)c1,"inconclusive: 3.16 µM [activator, full curve]"
11,Cc1ccc(-c2csc(N=C(N)N)n2)cc1,inactive
12,CCOc1ccc(-c2cc(OC(=O)c3ccccc3)c3c(C)oc(C)c3c(=O)c2)cc1,"inconclusive: 7.08 µM [inhibitor, partial curve, poor fit]"
13,CNc1ccccc1C(C)(C)c1cn(-c2ccc([N+](=O)[O-])cc2)nn1,"inconclusive: 0.316 µM [inhibitor, full curve, poor fit]"
14,CN(CC(=O)Nc1ccc(F)c(F)c1F)C(=O)CCc1nc2sc3c(c2c(=O)[nH]1)CCCC3,inactive
15,COc1ccc(/C=C/C(=O)OCC(=O)NC(C)CCc2ccccc2)cc1 (stereo not drawn),"inconclusive: 3.55 µM [inhibitor, partial curve, poor fit]"
16,CCCN(Cc1ccccc1)C(=S)Nc1ccc(OCC)cc1,"inconclusive: 35.5 µM [inhibitor, single point]"
17,CCC(Sc1nc2cc(OC)c(OC)cc2c(=O)n1CCc1ccc(Cl)cc1)C(=O)NCCOC (stereo not drawn),"inconclusive: 7.08 µM [activator, partial curve, poor fit]"
18,NC(=S)N/N=C/c1cccc(/C=N/NC(N)=S)c1,inactive
19,COc1ccc(Cl)cc1NC(=O)Cn1cc(C(=O)c2ccncc2)c(=O)c2cc(C)ccc21,inactive
20,O=C(c1ccc2c(c1)OCO2)C1CCCN(C2CCN(CCc3ccccc3)CC2)C1 (stereo not drawn),"inconclusive: 12.6 µM [inhibitor, partial curve, poor fit]"
21,CSc1cccc(N2CC(C(=O)Nc3cccc(S(=O)(=O)N4CCCC4)c3)CC2=O)c1 (stereo not drawn),inactive
22,O=C(Nc1ccc2c(c1)OCO2)c1noc2c1CCCCC2,"inconclusive: 29.1 µM [inhibitor, single point]"

# 4 of the compounds above, as tab-separated lines:
row	Compound	Potency
1	O=C(CCCc1c[nH]c2ccccc12)NCc1ccccc1F	active: 7.94 µM
2	CCOc1ccc2nc(SCC(=O)NC(=O)NCc3ccco3)[nH]c2c1	inconclusive: 25.1 µM [inhibitor, single point]
5	O=C(Nc1ccc(Br)cc1)c1cccc(S(=O)(=O)Nc2cnc3ccccc3c2)c1	inconclusive: 29.1 µM [inhibitor, single point]
18	NC(=S)N/N=C/c1cccc(/C=N/NC(N)=S)c1	inactive
